# Assay results published in the supplement of paper PMC4604168 (melanoma cell lines).
# The list shows a part of the results. Many values rest on one well or one pass, so single values are uncertain.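 Imaging used 1,536-well plates; nuclei positive for cleaved PARP by antibody were divided by total DNA-stained nuclei to yield the apoptosis fraction. Doses for screening kept most cells viable, and cell lines differ markedly in resting and induced cleaved-PARP levels.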
# Experiments:
# Assay in all cases: cleaved PARP positive nuclei fraction relative to DMSO control; melanoma cells; higher = more apoptosis
# Settings in all cases: library dose: low library concentration; 72 h
# 501Mel = system: 501Mel
# A101D = system: A101D
# A2058 = system: A2058
# C32 = system: C32
# CBRC008 = system: CBRC008 (line from a melanoma biopsy)
# CBRC014 = system: CBRC014 (line from a melanoma biopsy)
# CBRC016 = system: CBRC016 (line from a melanoma biopsy)
# CBRC017 = system: CBRC017 (line from a melanoma biopsy)
# A375 = system: A375
# CBRC013 = system: CBRC013 (line from a melanoma biopsy)
Structure (SMILES),cleaved PARP positive nuclei fraction (501Mel) [%],cleaved PARP positive nuclei fraction (A101D) [%],cleaved PARP positive nuclei fraction (A2058) [%],cleaved PARP positive nuclei fraction (C32) [%],cleaved PARP positive nuclei fraction (CBRC008) [%],cleaved PARP positive nuclei fraction (CBRC014) [%],cleaved PARP positive nuclei fraction (CBRC016) [%],cleaved PARP positive nuclei fraction (CBRC017) [%],cleaved PARP positive nuclei fraction (A375) [%],cleaved PARP positive nuclei fraction (CBRC013) [%]
"NC1(c2ccc(-c3nc4ccn5c(=O)[nH]nc5c4cc3-c3ccccc3)cc2)CCC1 + C/C(O)=C(\C#N)C(=O)Nc1cc(Br)ccc1Br [LFM-A13] (first compound 0.4 µM, partner dose 2 µM)",34.5,28.6,333,88.5,41.3,71,69.4,68.2,,
"CS(=O)(=O)CCNCc1ccc(-c2ccc3ncnc(Nc4ccc(OCc5cccc(F)c5)c(Cl)c4)c3c2)o1 [lapatinib] + Cc1cc(SCc2sc(-c3ccc(C(F)(F)F)c(F)c3)nc2C)ccc1OCC(=O)O [GW0742] (first compound 0.8 µM, partner dose 2 µM)",71,31.4,22.5,147,310,110,104,120,,
"Cn1cc(C2=C(c3cn(C4CCN(Cc5ccccn5)CC4)c4ccccc34)C(=O)NC2=O)c2ccccc21 [Enzastaurin] + CCc1ccc(CCOc2ccc(CC3SC(=O)NC3=O)cc2)nc1 [pioglitazone] (first compound 0.8 µM, partner dose 2 µM)",54.9,19.1,67.5,24.5,213,93.3,113,256,,
"Cn1sc(=O)n(Cc2ccccc2)c1=O + C/C(O)=C(\C#N)C(=O)Nc1cc(Br)ccc1Br [LFM-A13] (first compound 0.4 µM, partner dose 2 µM)",60.8,29,35.1,28.4,45.9,118,98.1,95.5,,
"CCCCCCCCCCCCCCCCCCOP(=O)([O-])OC1CC[N+](C)(C)CC1 [Perifosine] + O=C(Oc1ccc([N+](=O)[O-])cc1)N1CCC(C(O)(c2ccc3c(c2)OCO3)c2ccc3c(c2)OCO3)CC1 [JZL184] (first compound 0.4 µM, partner dose 1 µM)",51.3,15.5,99.7,48.8,52,110,29.9,73.9,,
"N.N.[Cl][Pt][Cl] [cisplatin] + COc1cc2ncnc(Nc3ccc(Oc4ccccc4)cc3)c2cc1OC [SrcI1] (first compound 1.6 µM, partner dose 2 µM)",62.4,24,95.6,76.8,265,111,21.2,116,,
"N.N.[Cl][Pt][Cl] [cisplatin] + O=C(O)C(=O)Nc1sc2c(c1C(=O)O)CCNC2 [TCS401] (first compound 1.6 µM, partner dose 1.66667 µM)",30.8,30.2,81.3,83.6,159,110,89.3,110,,
"N#CC[C@H](C1CCCC1)n1cc(-c2ncnc3[nH]ccc23)cn1 [ruxolitinib] + O=C(Oc1ccc([N+](=O)[O-])cc1)N1CCC(C(O)(c2ccc3c(c2)OCO3)c2ccc3c(c2)OCO3)CC1 [JZL184] (first compound 1 µM, partner dose 1 µM)",72.6,16.3,65,18.2,159,85.7,160,176,,
"CCCCCCCCCCCCCCCCCCOP(=O)([O-])OC1CC[N+](C)(C)CC1 [Perifosine] + C/C(O)=C(\C#N)C(=O)Nc1cc(Br)ccc1Br [LFM-A13] (first compound 0.4 µM, partner dose 2 µM)",134,29.2,232,87.3,80.5,108,105,156,,
"CCCS(=O)(=O)Nc1ccc(F)c(C(=O)c2c[nH]c3ncc(Cl)cc23)c1F + O=C(Oc1ccc([N+](=O)[O-])cc1)N1CCC(C(O)(c2ccc3c(c2)OCO3)c2ccc3c(c2)OCO3)CC1 [JZL184] (first compound 0.08 µM, partner dose 1 µM)",70.3,31.1,54.7,49.3,63.4,99.3,151,99.7,,
"C[C@]12O[C@H](C[C@]1(O)CO)n1c3ccccc3c3c4c(c5c6ccccc6n2c5c31)CNC4=O [Lestaurtinib] + OCCn1cc(-c2cnc3nnn(Cc4ccc5ncccc5c4)c3n2)cn1 [PF04217903] (first compound 0.004 µM, partner dose 1 µM)",,78.2,87.3,108,220,73,120,87.2,16.5,146
"Cn1sc(=O)n(Cc2ccccc2)c1=O + Cc1cc(SCc2sc(-c3ccc(C(F)(F)F)c(F)c3)nc2C)ccc1OCC(=O)O [GW0742] (first compound 0.4 µM, partner dose 2 µM)",124,40,107,56.4,159,88,72.4,105,,

# Only cleaved PARP positive nuclei fraction (A2058) [%] and cleaved PARP positive nuclei fraction (C32) [%], for some of the entries so far:
Structure (SMILES) | cleaved PARP positive nuclei fraction (A2058) [%] | cleaved PARP positive nuclei fraction (C32) [%]
Cn1cc(C2=C(c3cn(C4CCN(Cc5ccccn5)CC4)c4ccccc34)C(=O)NC2=O)c2ccccc21 [Enzastaurin] + CCc1ccc(CCOc2ccc(CC3SC(=O)NC3=O)cc2)nc1 [pioglitazone] (first compound 0.8 µM, partner dose 2 µM) | 67.5 | 24.5
Cn1sc(=O)n(Cc2ccccc2)c1=O + C/C(O)=C(\C#N)C(=O)Nc1cc(Br)ccc1Br [LFM-A13] (first compound 0.4 µM, partner dose 2 µM) | 35.1 | 28.4
